These are yes or no findings as the source states them, for the method shown. Some entries that bind do so weakly or less than the wild type.

Protein sequences, listed by entry. Tags and fused reporters are not part of them. Residues count along the entry.
UniProt Q08722, residues 19-139: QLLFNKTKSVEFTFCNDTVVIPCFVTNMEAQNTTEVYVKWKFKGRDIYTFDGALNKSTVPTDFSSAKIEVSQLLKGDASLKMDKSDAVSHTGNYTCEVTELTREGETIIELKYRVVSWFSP

This assay concerns the target recombinant CD47 protein (UniProt Q08722). The assay is described as follows: SPR; recombinant CD47 on CM5 chip.

B1: SV4 (designed binder)
chain: MEEELQIIQPDLSVSVAAGESAILHCTITSLFPVGPIQWFRGAGPARVLIYNQRQGPFPRVTTVSETTKRENMDFSISISNITPADAGTYYCIKFRKGSPDTEFLSGAGTELSVRAKPS
In the case of B1, the binding entry is on record as “binds”.

B2: SV4-DSPE (DSPE-conjugated SV4) (designed binder)
chain: B1 chain
As for B2, the binding result is on record as “binds”.

Values taken from patent US20230285589A1, “LIPOSOME COMPLEX FOR CANCER TREATMENT, COMPRISING NOVEL CD47 BINDER AND POLYNUCLEOTIDE” (priority 2020, published 2023).
